Results reported in PubChem BioAssay AID2551 (National Center for Advancing Translational Sciences (NCATS), 2010).
The whole screen tested about 310,000 compounds, of which about 17,000 (5.5%) were called active. Inconclusive means that the source gave no clear call. Such entries were picked first, then a sample of the others. Calls come from the whole dose curve; as a rule, active = well fitted inhibition curve with a large enough effect; inconclusive = small, poorly fitted or top-dose-only effect, or effect the other way; inactive = no such curve, though single readings can be large or run the other way. A potency beside an inconclusive call is a rough fit, not a confirmed value.

Amino acid sequences for entries named in this document (tags omitted). A change or cut given only in a name is not applied to a line headed by its entry.
UniProt P51450: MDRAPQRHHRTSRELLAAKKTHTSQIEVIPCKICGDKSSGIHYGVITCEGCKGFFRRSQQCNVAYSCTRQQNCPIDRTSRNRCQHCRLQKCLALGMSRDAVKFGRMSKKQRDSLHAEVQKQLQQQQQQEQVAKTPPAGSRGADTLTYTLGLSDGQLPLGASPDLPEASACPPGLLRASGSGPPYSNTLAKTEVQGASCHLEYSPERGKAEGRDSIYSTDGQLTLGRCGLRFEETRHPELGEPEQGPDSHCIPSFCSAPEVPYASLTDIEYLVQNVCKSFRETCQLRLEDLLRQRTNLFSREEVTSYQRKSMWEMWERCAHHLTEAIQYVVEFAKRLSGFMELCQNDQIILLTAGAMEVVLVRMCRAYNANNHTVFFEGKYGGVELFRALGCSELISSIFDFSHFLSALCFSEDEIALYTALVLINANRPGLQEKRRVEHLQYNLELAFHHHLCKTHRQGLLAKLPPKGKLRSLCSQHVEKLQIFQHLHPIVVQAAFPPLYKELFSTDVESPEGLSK

Biological target: Nuclear receptor ROR-gamma (Mus musculus) (UniProt P51450)
Test: qHTS for inhibitors of ROR gamma transcriptional activity; note: nearly all actives have a fitted effect of over 60% in size
Conditions: Drosophila S2 Gal4-RORgamma UAS-luciferase reporter, 20 h; activity change, negative = inhibition: at 53.6 µM (top of the series)
Outline: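 ROR gamma transcriptional activity was tracked as Gal4-UAS luciferase output in stably transfected Drosophila Schneider cells, with compound added 1 hr before 700 uM copper sulfate induction and a 20 hr ambient-temperature incubation.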
% is set by controls: 0 for no effect and ±100 for the full control effect; potency is the fitted concentration of half-maximal effect.

| Structure (SMILES) | Potency | activity change, negative = inhibition |
| --- | --- | --- |
| Cc1nc(-c2cccc(S(=O)(=O)N3CC(C)OC(C)C3)c2)cs1 (stereo unspecified) | inactive | – |
| CCN(CC(=O)NC(=O)NCc1ccccc1)Cc1nc2ccccc2c(=O)[nH]1 | active: 0.355 µM | – |
| Cc1ccc(C(=O)NC(=S)Nc2ccc(NC(=O)c3cccc(Cl)c3)cc2)cc1 | inconclusive: 5.01 µM [inhibitor, full curve, poor fit] | – |
| O=[N+]([O-])c1cccc(S(=O)(=O)Nc2ccc(Cc3ccncc3)cc2)c1 | inconclusive: 12.6 µM [activator, partial curve] | – |
| Cc1ccc(NC(=O)C2CCCN2S(=O)(=O)c2ccc3c(c2)n(C)c(=O)c(=O)n3C)c(C)c1 (stereo unspecified) | inconclusive: 35.5 µM [activator, partial curve] | – |
| CCC(C(=O)OCC(=O)N1C(C)CCCC1C)c1ccccc1 (stereo unspecified) | inconclusive: 35.5 µM [activator, single point] | – |
| Cc1noc(C)c1C(=O)OCC(=O)Nc1cccc(S(=O)(=O)N(C)C)c1 | inconclusive: 14.1 µM [activator, partial curve] | – |
| CCCCSc1nc(NCc2ccco2)c2c3c(sc2n1)COC(C)(C)C3 | inactive | – |
| COc1ccc(C(O)C(CN2CCOCC2)c2ccccc2)cc1F (stereo unspecified) | – | inactive: 0% [at 0.365 µM] |
| CC(C)OC(=O)CC1C(=O)NCCN1C(=S)NC(=O)c1ccc(F)cc1 (stereo unspecified) | active: 3.16 µM | – |
| O=C(Nc1ccc2ncccc2c1)c1ccccc1Cl | inactive | – |
| Cc1c(C(=O)NCCC2=CCCCC2)oc2ccc(S(=O)(=O)N3CCC4(CC3)OCCO4)cc12 | inactive | – |
| CCOC(=O)C1=C(c2ccccc2)N=c2s/c(=C\c3cccc(O)c3)c(=O)n2C1c1cccs1 (stereo unspecified) | inactive | – |
| O=C(Cn1ccc(C(F)(F)F)n1)Nc1cccc(S(=O)(=O)N2CCCCC2)c1 | inconclusive: 12.6 µM [activator, partial curve] | – |
| NC(=O)CN1C(=O)C2C3C=CC(C3)C2C1=O (stereo unspecified) | inconclusive: 56.2 µM [inhibitor, partial curve, poor fit] | – |
| COc1cccc(/C=N/NC(=O)c2[nH]c(C)c(C(=O)N/N=C/c3cccc(OC)c3O)c2C)c1O | inactive | – |
| Cc1cccc(Sc2nc(-c3ccccc3)ncc2C(=O)O)c1 | inactive | – |
| CC(C)(C)c1cc(OS(C)(=O)=O)ccc1O | inactive | – |
| CCOc1ccc(Nc2ccc(C(=O)O)cc2[N+](=O)[O-])cc1 | inconclusive: 14.1 µM [activator, single point] | – |
| CCCN(CCC)S(=O)(=O)c1ccc(Cl)c([N+](=O)[O-])c1 | inactive | – |
| Cc1ccccc1C(=O)Nc1cccc(NC(=S)NC(=O)c2cccs2)c1 | inconclusive: 8.91 µM [inhibitor, partial curve, poor fit] | – |
| O=C(NC(=S)Nc1c(Cl)ccc2nsnc12)c1ccccc1F | active: 1.41 µM | – |
| CCCc1cc(C(=O)NC2CCCC2)no1 | inconclusive: 5.01 µM [inhibitor, single point] | – |
| N#Cc1ccccc1-c1cncnc1NCc1cccnc1 | inactive | – |
| CCOc1ccc(Nc2nc(N)c([N+](=O)[O-])c(NCc3ccccc3)n2)cc1 | inactive | – |
| COc1ccc(CNC(=O)CCNS(=O)(=O)c2cc(Br)cnc2N)cc1 | inactive | – |

| Structure (SMILES) | Potency | activity change, negative = inhibition |
| --- | --- | --- |
| COc1ccc(Oc2ncc3nc(-c4cc(F)cc(F)c4)c(=O)n(C)c3n2)cc1 | inactive | – |
| COc1cc(CCC(=O)Nc2cccc(C(F)(F)F)c2)cc(OC)c1OC | inconclusive: 11.2 µM [activator, partial curve, poor fit] | – |
| CCOc1cccc2cc(C(=O)NCc3ccccc3Cl)c(=O)oc12 | inconclusive: 35.5 µM [inhibitor, single point] | – |
| Cc1ccc(CN2CCN(c3ncccn3)CC2)o1 | inconclusive: 1.78 µM [inhibitor, partial curve, poor fit] | – |
| CC(=O)N=c1sc2nc3ccccc3nc2n1N(C(C)=O)C(C)=O | active: 10 µM | – |
| CC(C)=NNc1nc(-c2ccccc2)cs1 | inconclusive: 20 µM [inhibitor, single point] | – |
| COc1ccc(C(=O)NC(=S)N2CC(C)OC(C)C2)cc1 (stereo unspecified) | active: 5.62 µM | – |
| CCOc1cc(CNc2ccc(S(N)(=O)=O)cc2)cc(Cl)c1OC | inactive | – |
| CCNC(=S)NNC(=O)c1csc2c1CCCC2 | active: 3.16 µM | – |
| O=C(NC1CCN(C(=S)Nc2ccc(F)cc2)CC1)C1CCCCC1 | inactive | – |
| CCc1nccn1CCC(=O)NC1CC(C)(C)Cc2c1cnn2-c1cccc(F)c1 (stereo unspecified) | inactive | – |
| Cc1ccccc1/C=N/n1c(-c2ccccn2)n[nH]c1=S | inconclusive: 35.5 µM [inhibitor, single point] | – |
| C/C(=N/NC(=O)c1ccc(Br)o1)c1ccc(C)o1 | inactive | – |
| C=CCn1c(SCC(=O)Nc2sccc2C(N)=O)nc2sc(CC)cc2c1=O | inactive | – |
| CC(=O)N1c2ccc(S(=O)(=O)NCCC(=O)NCCc3ccc(Cl)cc3)cc2CC1C (stereo unspecified) | inconclusive: 35.5 µM [activator, single point] | – |
| c1ccc2oc(-c3csc(N4CCOCC4)n3)cc2c1 | inconclusive: 11.2 µM [inhibitor, single point] | – |
| Cc1oc(C(C)(C)C)cc1C(=O)Nc1ccc2c(c1)OCCO2 | inconclusive: 12.6 µM [activator, partial curve] | – |
| CC(C)(C)Nc1nc2nonc2nc1NC(C)(C)C | inactive | – |
| COc1ccc(C(=O)N2CCN(c3ccc(C)cc3)CC2)cc1OC | inactive | – |
| CC(C)NS(=O)(=O)c1ccc(NC(=O)C(C)Oc2ccc(C(=O)c3ccccc3)cc2)cc1 (stereo unspecified) | inconclusive: 35.5 µM [inhibitor, single point] | – |
| CCOC(=O)C1CCCN(C(=O)c2ccc(C)c([N+](=O)[O-])c2)C1 (stereo unspecified) | inactive | – |
| Cc1ccc(-c2c(C(=O)N(C)Cc3ccccc3)oc(=O)c3ccccc23)cc1 | inconclusive: 12.6 µM [activator, single point] | – |
| CCOC(=O)N1CCN(S(=O)(=O)c2ccc(C(=O)Nc3nnc(CC)o3)cc2)CC1 | inconclusive: 0.794 µM [inhibitor, single point] | – |
| Cc1cc(NO)c(C(C)C)cc1N=O | inconclusive: 11.2 µM [activator, partial curve, poor fit] | – |
| COCCN1C(=O)/C(=C/c2ccc(OCc3ccc(C(=O)O)cc3)c(OC)c2)SC1=Nc1ccccc1 | inconclusive: 20 µM [activator, partial curve] | – |
| COc1ccc(NC(=O)Nc2ccccc2F)cc1 | inconclusive: 17.8 µM [inhibitor, single point] | – |

Quoted at random: four records from the list

| Structure (SMILES) | Potency | activity change, negative = inhibition |
| --- | --- | --- |
| CC(=O)N=c1sc2nc3ccccc3nc2n1N(C(C)=O)C(C)=O | active: 10 µM | – |
| COc1ccc(NC(=O)Nc2ccccc2F)cc1 | inconclusive: 17.8 µM [inhibitor, single point] | – |
| COc1cc(CCC(=O)Nc2cccc(C(F)(F)F)c2)cc(OC)c1OC | inconclusive: 11.2 µM [activator, partial curve, poor fit] | – |
| CCOC(=O)N1CCN(S(=O)(=O)c2ccc(C(=O)Nc3nnc(CC)o3)cc2)CC1 | inconclusive: 0.794 µM [inhibitor, single point] | – |

(list continues)

| Structure (SMILES) | Potency | activity change, negative = inhibition |
| --- | --- | --- |
| Cc1cccc(OCCNc2cc(N3CCOCC3)ccc2[N+](=O)[O-])c1 | inconclusive: 15.8 µM [activator, single point] | – |
| O=[N+]([O-])c1ccc(CN2CCC(Cc3ccccc3)CC2)cc1 | inconclusive: 1.26 µM [inhibitor, partial curve] | – |
| c1ccc(-c2ccc(N3CCCC4(CCNCC4)C3)cc2)cc1 | inconclusive: 22.4 µM [inhibitor, single point] | – |
| Cc1ccc(S(=O)(=O)N(c2ccc(Br)cc2)C2C=CS(=O)(=O)C2)cc1 (stereo unspecified) | inactive | – |
| O=C(Cc1ccc(-c2ccccc2)cc1)Nc1ncccc1O | inconclusive: 17.8 µM [inhibitor, single point] | – |
| N=C1C(c2nc3ccccc3[nH]2)=C(O)CN1c1ccc(F)cc1 | active: 5.01 µM | – |
| COC(=O)C1CCN(S(=O)(=O)c2cn(C)c(=O)n(C)c2=O)CC1 | inconclusive: 6.31 µM [activator, single point] | – |
| O=C(c1ccco1)N1CCC(c2nc3c(nnn3Cc3c(Cl)cccc3Cl)c(=O)[nH]2)CC1 | inconclusive: 3.55 µM [activator, partial curve] | – |
| CCOc1cc(/C=C2\SC(=N)N(c3nonc3N)C2=O)ccc1OCC(N)=O | inconclusive: 1.58 µM [inhibitor, full curve, poor fit] | – |
| Cc1nn(C)c(C(=O)NCc2ccc(Cl)cc2)c1Cl | inconclusive: 35.5 µM [inhibitor, single point] | – |
| COc1cc(/C=N/NC(=O)COc2cccc(F)c2)ccc1OS(=O)(=O)c1ccc(C)cc1 | inactive | – |
| FC(F)(F)C(Oc1nc(Nc2ccc(Cl)cc2)nc(N2CCOCC2)n1)C(F)(F)F | inconclusive: 11.2 µM [activator, partial curve] | – |
| CCOc1ccc(S(=O)(=O)N(CC(=O)N/N=C/c2ccc(-c3ccc([N+](=O)[O-])cc3)o2)c2ccccc2)cc1 | inactive | – |
| CC(=O)c1ccc(NC(=S)NNC(=O)NC2CCCCC2)cc1 | inconclusive: 35.5 µM [inhibitor, single point] | – |
| Cc1ccnc(NC(=S)NC(=O)c2ccco2)c1 | active: 4.47 µM | – |
| CCn1c(NC2CCCCC2)nc2ccccc21 | inconclusive: 17.8 µM [inhibitor, single point] | – |
| COc1cc2[nH]c(=S)nc(NCCc3ccc(C)cc3)c2cc1OC | active: 0.891 µM | – |
| CC(NS(C)(=O)=O)C(c1cccs1)N1CCN(Cc2ccccc2)CC1 (stereo unspecified) | inactive | – |
| S=c1[nH]nc(-c2ccc(Cl)cc2)n1/N=C/C=C/c1ccco1 | inconclusive: 1.78 µM [inhibitor, full curve] | – |
| Cc1noc(C)c1C(=O)N1CCC2(CC1)CN(c1cccc(-c3ccccc3)c1)C2 | inactive | – |
| c1coc(CNc2ncnc3c2oc2ccccc23)c1 | inconclusive: 12.6 µM [activator, single point] | – |
| COc1cc2cc(CN(CCCN3CCOCC3)Cc3nnnn3Cc3ccccc3)c(=O)[nH]c2cc1OC | inactive | – |
| Cc1noc(C)c1CN1C(=O)c2cccc([N+](=O)[O-])c2C1=O | inactive | – |
| CCCc1cc(C(=O)Cc2ccc(F)cc2)c(O)cc1O | active: 11.2 µM | – |
